Results are given in words; binding and its absence hold for the method and conditions named. Some results given as binding are weak or reduced against the parent protein; the word gives no strength. Sequences can lack the tags named with a protein.
Target: T1, mouse IL18BP-Fc (mouse; human) (UniProt Q9Z0M9)
T1 sequence (looked up): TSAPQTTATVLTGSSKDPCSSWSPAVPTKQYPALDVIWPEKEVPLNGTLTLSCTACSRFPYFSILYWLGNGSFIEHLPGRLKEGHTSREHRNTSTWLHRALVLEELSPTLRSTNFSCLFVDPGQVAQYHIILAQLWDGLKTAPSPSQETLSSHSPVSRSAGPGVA
Experiment: Biacore

B1: ADI-71739 Fab fragment (Fab, V domains shown)
VH: QLQLQESGPGLVKPSETLSLTCTVSGGSISSPDYPWGWIRQPPGKGLEWIGSIYYQGATYYNPSLKSRVTISVDTSKNQFSLKLSSVTAADTAVYYCARGPYRQLFDYWGQGTLVTVSS
VL: DIQMTQSPSSVSASVGDRVTITCRASQGISSWLAWYQQKPGKAPKLLIYAASSLQSGVPSRFSGSGSGTDFTLTISSLQPEDFATYYCQQGSVFPYTFGGGTKVEIK
- binding: binds
